Drawing on PubChem BioAssay AID1487 (National Center for Advancing Translational Sciences (NCATS), 2009), this text covers AC50 for 36 molecules.

The assay is described as follows: qHTS Assay for Modulators of Lamin A Splicing. Particulars: HeLa LMNA splicing GFP/RFP minigene ratio, 48 h. The method, boiled down: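 S3 HeLa cells stably expressing lamin A-EGFP splicing minigene plus DsRed2, 600 cells/well, 48 h compound exposure at 37C. Laser-scanning cytometry; analysed as GFP (500-530 nm)/RFP (575-640 nm) total intensity ratio; 0.5% DMSO vehicle.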

The mark [1] stands for this setting: measured here: GFP splicing reporter channel.
[2] abbreviates: measured here: RFP viability control channel.

The other results are listed elsewhere or left out. Shown are side measurements of this screen, not its main read-out; they come without a call. Most of these compounds were active or inconclusive in the main read-out, so they are no random draw. Words in brackets tell the shape of the fitted curve; partial curves, single points and poor fits give uncertain potencies.

As for `COc1ccc(N2CCN(CC(=O)Nc3nc4c(s3)CC(C)CC4)CC2)cc1` (configuration not stated), the AC50 is 7.94 µM [rising, partial curve, poor fit] under setting [1] and 15.8 µM [rising, single point] under setting [2].
For `Cc1nc2ccccc2n1CC(O)COCC1CC=CCC1` (configuration not stated), the AC50 under setting [2] is 7.08 µM [rising, partial curve].
Consider `Cc1ccc(OCCN2CCN(c3nc(NCc4ccco4)c4ccccc4n3)CC2)cc1`, for which the AC50 is, setting by setting: under setting [1], 12.6 µM [rising, partial curve]; under setting [2], 35.5 µM [rising, single point].
For `O=C(c1ccc(Br)cc1)N(Cc1ccco1)c1ccccn1`, under setting [2], the half-maximal activity concentration (AC50) is 0.00891 µM [falling, full curve, poor fit].
Take `CN1C(=O)Cc2cc(S(=O)(=O)NCc3ccccc3Cl)ccc21`: the AC50 runs as follows: under setting [1], 11.2 µM [rising, partial curve, poor fit]; under setting [2], 12.6 µM [rising, single point].
Consider `CC(C)c1ccc(OCC(=O)N(c2ccccn2)C2CCCCC2)cc1`, for which the half-maximal activity concentration (AC50) by setting is: under setting [1], 14.1 µM [rising, single point]; under setting [2], 22.4 µM [rising, single point].
For the molecule `C=C1C(C(=O)Nc2ccc(OCC)cc2)C1C(=O)Nc1ccc(OCC)cc1` (configuration not stated), under setting [2], the AC50 is 0.00355 µM [rising, full curve, poor fit].
The same measure, in the same setting: next, `CCc1ccc(-c2nnn(Cc3nc4ccccc4s3)n2)cc1`: 22.4 µM [rising, single point]; `CC/C(C)=N/Nc1nc2c(c(=O)[nH]c(=O)n2C)n1CCc1ccccc1`: 15.8 µM [rising, single point]; `CCOC(=O)c1oc2ccccc2c1CN1CCN(C(=O)c2ccccc2)CC1`: 12.6 µM [rising, single point].
For the molecule `CCOc1cc(CNc2ccc(N3CCOCC3)cc2)cc(Br)c1OCC`, the half-maximal activity concentration (AC50) is, setting by setting: under setting [1], 5.01 µM [rising, single point]; under setting [2], 35.5 µM [rising, partial curve].
For `Oc1cc(O)c2c(c1)OC(c1ccc(O)c(O)c1)C(O)C2` (configuration not stated), the AC50 by setting is: under setting [1], 31.6 µM [falling, single point]; under setting [2], 11.2 µM [rising, partial curve, poor fit].
For the molecule `Cc1cc(C)nc(N2CCC(C(=O)Nc3ccc4c(c3)OCO4)CC2)n1`, the concentration at half-maximal activity (AC50) by setting is: under setting [1], 15.8 µM [rising, single point]; under setting [2], 35.5 µM [rising, single point].
In the case of `CCOc1cc(S(=O)(=O)NC2CCCC2)ccc1Cl`, the half-maximal activity concentration (AC50) under setting [2] was 0.02 µM [rising, full curve, poor fit].
On to `Cc1c(Cl)cccc1NC(=S)NCc1ccccc1Cl`, for which the AC50 was 31.6 µM [rising, single point] under setting [1] and 35.5 µM [rising, single point] under setting [2].
Consider `Cn1nc(C(=O)Oc2cc(=O)n(C)c3ccccc23)c2ccccc2c1=O`, for which, under setting [1], the AC50 is 0.316 µM [rising, full curve].
As to `CCOc1ccccc1Oc1ncnc2c1oc1ccccc12`, the AC50 under setting [2] was 6.31 µM [falling, partial curve, poor fit].
Regarding `COc1ccc(CCCc2nnc(SCC(=O)Nc3cc(C)c(C)cc3Br)o2)cc1`, the AC50 under setting [2] is 12.6 µM [rising, single point].
Consider `C=C1C(=O)OC2C1CC/C(C)=C/CCC1(C)OC21` (configuration not stated), for which the AC50 reads like this: under setting [1], 3.16 µM [falling, full curve]; under setting [2], 5.01 µM [falling, full curve].
As for `CCOc1ccccc1NCc1nnc2n1CCCCC2`, the AC50 is 0.891 µM [rising, full curve, poor fit] under setting [1] and 28.2 µM [rising, single point] under setting [2].
Consider `CCOC(=O)c1cnc2ccc(OCC)cc2c1N1CCN(c2ccccc2)CC1`, for which the AC50 under setting [1] is 25.1 µM [rising, partial curve].
Regarding `O=C(NC(=S)NCCC1=CCCCC1)c1cncc(Br)c1`, the AC50 under setting [1] is 22.4 µM [rising, single point] and the AC50 under setting [2] was 35.5 µM [rising, single point].
In the case of `c1ccc2c(c1)[nH]c1c(N3CCC4(CC3)OCCO4)ncnc12`, the AC50 under setting [2] was 12.6 µM [rising, partial curve].
Consider `O=C(N/N=C1\C2CN3CCN(C2)CC1(c1ccccc1)C3)Nc1ccccc1`, for which the AC50 reads like this: under setting [1], 1.12 µM [rising, full curve, poor fit]; under setting [2], 5.62 µM [rising, partial curve].
With `O=C(c1cccc(Cl)c1)N1CCCC(c2ccc(Cl)cc2)=N1`, the AC50 under setting [1] is 12.6 µM [rising, single point] and the AC50 under setting [2] is 25.1 µM [rising, single point].
In the case of `CC/C(C)=C1\SC(N2CCN(c3cccc(C(F)(F)F)c3)CC2)=NC1=O`, under setting [2], the half-maximal activity concentration (AC50) is 5.62 µM [falling, partial curve, poor fit].
Still for that read-out and setting: next, `CC(C)C(NS(=O)(=O)c1c(Cl)cccc1Cl)C(=O)OCC(=O)c1c[nH]c2ccccc12` (configuration not stated): 20 µM [rising, partial curve, poor fit].
For the molecule `CCCOC(=O)c1cccc(NC(=O)CSc2nnc3cc(C)c4ccccc4n23)c1`, under setting [1], the AC50 was 1.41 µM [falling, full curve, poor fit].
With `CCCCCCNC(=O)CCCCCNS(=O)(=O)c1ccc(OC)cc1`, the AC50 under setting [1] is 31.6 µM [rising, single point].
For the molecule `CC1(CC(=O)N/N=C/c2ccc(-c3cccc(C(F)(F)F)c3)o2)OCCO1`, under setting [2], the AC50 was 7.94 µM [rising, single point].
As for `Cc1cc(/C=N/n2cnnc2)c(C)n1-c1ccc(OCc2ccc(F)cc2)cc1`, the concentration at half-maximal activity (AC50) under setting [1] is 0.794 µM [rising, partial curve] and the AC50 under setting [2] is 2.51 µM [rising, full curve].
Turning to `Cc1ccccc1N1C(=O)CSC1=C(C#N)C#N`, the AC50 was 11.2 µM [rising, partial curve] under setting [1] and 35.5 µM [rising, partial curve, poor fit] under setting [2].
As to `CC(C)OC(=O)Cn1nnc2c(cnn2-c2ccccc2)c1=O`, the half-maximal activity concentration (AC50) under setting [2] was 25.1 µM [rising, single point].
In the case of `Cn1c(SCc2ccccn2)nnc1-c1ccncc1`, under setting [2], the AC50 was 3.98 µM [rising, single point].
Take `CCCCC(c1nnnn1CS(=O)(=O)c1ccc(C)cc1)N1CCN(c2ccccc2)CC1` (configuration not stated): the half-maximal activity concentration (AC50) under setting [2] is 8.91 µM [rising, partial curve].
With `CCOC(=O)c1c(-c2ccccc2)csc1NC(=O)CSc1nc(C)cc(C)n1`, the AC50 is 22.4 µM [rising, single point] under setting [1] and 31.6 µM [rising, partial curve] under setting [2].
